These are yes or no findings as the source states them, for the method shown. In cells and extracts the contact can be indirect. For part of these data: Binding can be weak; no strength is given. Where a sequence is shown, tags or fusion partners need not be part of it.
Columns and labels:
Assay in all cases: split reporter; split-luciferase complementation; nLUC and cLUC fusions co-expressed in N. benthamiana leaves by agroinfiltration (1:1); LUC image taken with a CCD after adding luciferin
[1] = molecular target: T1, Cluc-AtCLV1 (Arabidopsis thaliana) (UniProt Q9SYQ8)
T1 sequence: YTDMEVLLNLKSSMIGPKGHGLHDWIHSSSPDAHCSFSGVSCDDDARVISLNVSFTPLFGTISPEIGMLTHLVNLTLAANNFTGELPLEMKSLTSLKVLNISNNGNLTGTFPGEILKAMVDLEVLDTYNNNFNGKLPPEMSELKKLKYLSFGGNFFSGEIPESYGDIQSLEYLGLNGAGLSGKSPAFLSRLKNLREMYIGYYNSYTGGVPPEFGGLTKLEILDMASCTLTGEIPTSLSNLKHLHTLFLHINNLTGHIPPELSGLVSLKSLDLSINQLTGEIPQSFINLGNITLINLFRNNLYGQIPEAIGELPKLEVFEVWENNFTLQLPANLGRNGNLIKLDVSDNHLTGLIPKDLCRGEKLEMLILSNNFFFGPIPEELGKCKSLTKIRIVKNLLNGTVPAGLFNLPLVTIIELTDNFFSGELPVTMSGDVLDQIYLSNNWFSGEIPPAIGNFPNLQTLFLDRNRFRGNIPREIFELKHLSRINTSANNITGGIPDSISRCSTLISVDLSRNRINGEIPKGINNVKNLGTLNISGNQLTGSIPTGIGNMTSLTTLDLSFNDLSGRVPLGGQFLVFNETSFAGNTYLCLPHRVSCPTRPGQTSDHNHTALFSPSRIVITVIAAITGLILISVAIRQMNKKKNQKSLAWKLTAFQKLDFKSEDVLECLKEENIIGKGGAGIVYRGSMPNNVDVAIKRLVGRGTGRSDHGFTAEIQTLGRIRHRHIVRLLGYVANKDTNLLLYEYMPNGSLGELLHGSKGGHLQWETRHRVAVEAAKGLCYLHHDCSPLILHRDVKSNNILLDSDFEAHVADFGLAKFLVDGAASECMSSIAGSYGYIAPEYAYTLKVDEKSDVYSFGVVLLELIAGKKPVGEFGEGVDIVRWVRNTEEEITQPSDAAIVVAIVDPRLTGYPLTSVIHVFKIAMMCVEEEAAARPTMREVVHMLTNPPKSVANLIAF

[2] = molecular target: T2, Cluc-AtCLV2 (Arabidopsis thaliana) (UniProt O80809)
T2 sequence: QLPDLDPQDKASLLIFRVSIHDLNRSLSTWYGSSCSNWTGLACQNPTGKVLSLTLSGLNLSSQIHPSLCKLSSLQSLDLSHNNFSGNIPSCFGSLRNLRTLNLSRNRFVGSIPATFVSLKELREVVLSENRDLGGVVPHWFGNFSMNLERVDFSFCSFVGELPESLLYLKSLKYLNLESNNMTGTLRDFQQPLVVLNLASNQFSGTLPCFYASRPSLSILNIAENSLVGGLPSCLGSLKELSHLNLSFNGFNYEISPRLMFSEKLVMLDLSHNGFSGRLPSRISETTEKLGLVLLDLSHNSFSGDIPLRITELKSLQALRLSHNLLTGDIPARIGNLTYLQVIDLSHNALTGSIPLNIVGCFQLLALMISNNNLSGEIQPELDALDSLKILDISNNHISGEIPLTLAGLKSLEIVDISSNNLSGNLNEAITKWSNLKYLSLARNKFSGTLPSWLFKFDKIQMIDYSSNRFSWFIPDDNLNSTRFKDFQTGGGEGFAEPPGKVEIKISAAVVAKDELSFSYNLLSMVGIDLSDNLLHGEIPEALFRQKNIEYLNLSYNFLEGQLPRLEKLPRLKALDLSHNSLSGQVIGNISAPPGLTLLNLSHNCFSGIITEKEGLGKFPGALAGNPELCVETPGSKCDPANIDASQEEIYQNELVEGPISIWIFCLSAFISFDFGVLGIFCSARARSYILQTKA

[3] = molecular target: T3, Cluc-AtCRN (Arabidopsis thaliana) (UniProt Q9LYU7)
T3 sequence: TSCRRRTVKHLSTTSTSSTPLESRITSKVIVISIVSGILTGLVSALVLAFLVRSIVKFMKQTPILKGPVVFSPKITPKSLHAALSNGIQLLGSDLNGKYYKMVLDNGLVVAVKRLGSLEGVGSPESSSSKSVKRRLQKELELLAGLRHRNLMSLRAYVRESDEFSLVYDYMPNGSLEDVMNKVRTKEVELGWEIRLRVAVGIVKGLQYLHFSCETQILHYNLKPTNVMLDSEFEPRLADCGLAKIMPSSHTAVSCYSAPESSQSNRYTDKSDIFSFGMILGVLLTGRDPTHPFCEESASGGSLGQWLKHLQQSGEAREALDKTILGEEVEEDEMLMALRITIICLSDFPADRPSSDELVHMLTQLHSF

binding [1]: binds
binding [2]: no binding
binding [3]: no binding
Substance: GhCLE5-Nluc (Gossypium hirsutum (upland cotton))

Source: publication PMC7930028
